Results deposited as PubChem BioAssay AID1259405 (NCATS, 2018).
Purpose: 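Silenced genes that increase secreted GFP made by CHO cells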 (primary screen). Cells: Chinese hamster CHO-K1 ovary cells with stable secreted eGFP expression. Reagents: single siRNA against mouse genes, 0.8 pmol siRNA per well (2 µl of 400 nM stock). Duration: 3 days. Read-out: 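Per-well intracellular GFP measured by laser scanning cytometry, plus viability from ATP luminescence, each relative to plate median of non-targeting control wells, in %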. Scale: GFP, % of control: higher = more GFP per well, higher productivity; viability (ATP), % of control: higher = more viable cells (more ATP). Hit rule: 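a knock-down is called active if GFP reaches 120% or more of non-targeting control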.
The deposit covers about 50,000 reagents; below is an unselected part. Of all reagents, about 4,000 (8%) are marked active. 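Mouse siRNA library applied to hamster cells; one well for each siRNA.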 A number with no mark means an inactive call. Reagents against one gene are numbered here.

target	siRNA no.	GFP, % of control	viability (ATP), % of control
Siah1a	1	69.9	67.7
Siah1a	2	86.6	91.2
Siah1a	3	29	17.6
Slc25a29	1	126 (active)	74.1
Slc25a29	2	119	104
Slc25a29	3	51.9	34.9
Defb50	1	37.5	44.6
Defb50	2	87.3	62
Defb50	3	61.3	32
Cyp4f15	1	41.2	67.7
Cyp4f15	2	114	105
Cyp4f15	3	96.3	95.1
Mfap2	1	49.4	38.3
Mfap2	2	72.9	65.8
Mfap2	3	62.9	64.3
Snx12	1	63.3	64.4
Snx12	2	72.9	69.4
Snx12	3	40	43.6
Slc4a9	1	107	77.9
Slc4a9	2	136 (active)	102
Slc4a9	3	39.1	60.9
Oasl2	1	127 (active)	63.9
Oasl2	2	73.3	56.7
Oasl2	3	49.2	60.2
A430033K04Rik	1	78.4	68.7
A430033K04Rik	2	55.5	54.1
A430033K04Rik	3	90.7	86.7
Tmem186	1	77.8	76
Tmem186	2	44.7	59.7
Tmem186	3	84.3	103
Aurkb	1	77.3	86.6
Phf13	1	35.3	22
Phf13	2	54.3	72.6
Phf13	3	91.9	126
Ece2	1	67.2	55.7
Ece2	2	69.8	103
Ece2	3	94.6	56.9
Ece2	4	102	80.6
Ece2	5	91.5	87.4
Ece2	6	82.8	71.9
Pde4a	1	83.4	48.6
Pde4a	2	82.6	75.6
Pde4a	3	109	105
Lbr	1	191 (active)	97.3
Lbr	2	68.2	77.7
Lbr	3	69.9	78
Rpl34	1	118	74.6
Rpl34	2	24.3	14.3
Rpl34	3	28	22.9
Akt1	1	83.1	62.5
Akt1	2	114	52.1
Akt1	3	102	85.7
Cacna1e	1	74.2	94.2
Cacna1e	2	78.3	90.1
Cacna1e	3	76.1	63.6
Igfbpl1	1	102	81.3
Igfbpl1	2	117	79.3
Igfbpl1	3	98.7	86.5
Ssc5d	1	74.8	80.5
Ssc5d	2	105	58.2
Ssc5d	3	161 (active)	191
Chd3	1	80.9	54.6
Chd3	2	109	56
Chd3	3	69.4	59.8
Tspyl2	1	96.3	48.8
Tspyl2	2	77.5	61.4
Tspyl2	3	74.3	72.6
Psip1	1	61	67.3
Psip1	2	45.8	48.7
Psip1	3	74.9	79.5
Sox12	1	79.3	84.3
Sox12	2	72.3	83.7
Sox12	3	93.7	111
Slc4a1	1	80.8	111
Slc4a1	2	65.6	61.9
Slc4a1	3	36.6	68.4
Or1j19	1	125 (active)	102
Or1j19	2	175 (active)	82.4
Or1j19	3	71.2	109
Ppil4	1	101	91.2
Ppil4	2	88.5	91.1
Ppil4	3	37.9	51.3
Gpc4	1	75.4	80.1
Gpc4	2	57	33.3
Gpc4	3	57.6	55.2
Robo4	1	57.3	58.4
Robo4	2	89.5	82.2
Ppfibp2	1	70.7	42.5
Ppfibp2	2	87.2	74
Ppfibp2	3	90.5	70.5
Stxbp5l	1	67.7	51
Stxbp5l	2	76.9	72
Stxbp5l	3	83.5	68.3
Megf9	1	89	85.3
Megf9	2	66.9	67.7
Arpp21	1	93.8	85.5
Arpp21	2	98.4	71.8
Arpp21	3	146 (active)	108
Btbd10	1	93.8	113
Btbd10	2	86.8	83.6
Slc25a23	1	91.3	114
Slc25a23	2	79.5	96.4
Slc25a23	3	20.3	30.5
Slc1a4	1	88	78.9
Slc1a4	2	77.7	73.9
Slc1a4	3	60.1	85.6
Slc27a2	1	147 (active)	60.9
Slc27a2	2	76.8	80.4
Slc27a2	3	112	111

Part of the list above, set out differently:
{"target": "Lbr", "siRNA no.": 3, "GFP, % of control": 69.9, "viability (ATP), % of control": 78}
{"target": "Rpl34", "siRNA no.": 1, "GFP, % of control": 118, "viability (ATP), % of control": 74.6}
{"target": "Rpl34", "siRNA no.": 2, "GFP, % of control": 24.3, "viability (ATP), % of control": 14.3}
{"target": "Rpl34", "siRNA no.": 3, "GFP, % of control": 28, "viability (ATP), % of control": 22.9}
{"target": "Akt1", "siRNA no.": 1, "GFP, % of control": 83.1, "viability (ATP), % of control": 62.5}
{"target": "Akt1", "siRNA no.": 2, "GFP, % of control": 114, "viability (ATP), % of control": 52.1}
{"target": "Akt1", "siRNA no.": 3, "GFP, % of control": 102, "viability (ATP), % of control": 85.7}
{"target": "Cacna1e", "siRNA no.": 1, "GFP, % of control": 74.2, "viability (ATP), % of control": 94.2}
{"target": "Cacna1e", "siRNA no.": 2, "GFP, % of control": 78.3, "viability (ATP), % of control": 90.1}
{"target": "Cacna1e", "siRNA no.": 3, "GFP, % of control": 76.1, "viability (ATP), % of control": 63.6}
{"target": "Igfbpl1", "siRNA no.": 1, "GFP, % of control": 102, "viability (ATP), % of control": 81.3}
